# Measured values reported in the supplement of paper PMC8728848.
# This is one part of the list.
# B1: pTFF2 (Sus scrofa), P01359 (protein)
# chain: KPAACRCSRQDPKNRVNCGFPGITSDQCFTSGCCFDSQVPGVPWCFKPLPAQESEECVMEVSARKNCGYPGISPEDCAARNCCFSDTIPEVPWCFFPMSVEACHY
# Experiments:
# Experiment in all cases: glycan array binding signal (z-score within array); higher = stronger binding
# Details in all cases: glycan notation: IUPAC condensed, linker removed
# [1] = biological target: Neu5Ac(a2-3)Gal(b1-4)GlcNAc(b1-3)[Neu5Ac(a2-3)Gal(b1-4)GlcNAc(b1-6)]GalNAc
# How it was run: (§1)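 Glycan array data were curated from 3228 arrays in the Consortium for Functional Glycomics database and kept only where the protein sequence was available. Glycan names were converted to IUPAC-condensed notation, and columns mapping to the same glycan were averaged. The binding signal is a within-array Z-score, averaged across arrays of the same protein sequence at different concentrations or buffers and across linkers. Negative Z-scores can be read as non-binding.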
# [2] = biological target: Neu5Ac(a2-3)Gal(b1-4)GlcNAc(b1-6)GalNAc
# How it was run: as §1
# [3] = biological target: Neu5Ac(a2-3)Gal(b1-4)GlcNAc(b1-6)[Gal(b1-3)]GalNAc
# How it was run: as §1
# [4] = biological target: Neu5Ac(a2-3)Gal(b1-4)GlcNAc(b1-6)[Neu5Ac(a2-3)Gal(b1-3)]GalNAc
# How it was run: as §1
# [5] = biological target: Neu5Ac(a2-3)Gal(b1-4)GlcNAc6S
# How it was run: as §1
# [6] = biological target: Neu5Ac(a2-3)Gal(b1-4)[Fuc(a1-3)]GlcNAc
# How it was run: as §1
# [7] = biological target: Neu5Ac(a2-3)Gal(b1-4)[Fuc(a1-3)]GlcNAc(b1-2)Man
# How it was run: as §1
# [8] = biological target: Neu5Ac(a2-3)Gal(b1-4)[Fuc(a1-3)]GlcNAc(b1-3)Gal
# How it was run: as §1
# [9] = biological target: Neu5Ac(a2-3)Gal(b1-4)[Fuc(a1-3)]GlcNAc(b1-3)Gal(b1-4)GlcNAc
# How it was run: as §1
# [10] = biological target: Neu5Ac(a2-3)Gal(b1-4)[Fuc(a1-3)]GlcNAc(b1-3)Gal(b1-4)[Fuc(a1-3)]GlcNAc(b1-3)Gal(b1-4)[Fuc(a1-3)]GlcNAc
# How it was run: as §1
# [11] = biological target: Neu5Ac(a2-3)Gal(b1-4)[Fuc(a1-3)]GlcNAc(b1-3)GalNAc
# How it was run: as §1
# [12] = biological target: Neu5Ac(a2-3)Gal(b1-4)[Fuc(a1-3)]GlcNAc(b1-6)[Gal(b1-3)]GalNAc
# How it was run: as §1
# [13] = biological target: Neu5Ac(a2-3)Gal(b1-4)[Fuc(a1-3)]GlcNAc(b1-6)[Neu5Ac(a2-3)Gal(b1-3)]GalNAc
# How it was run: as §1
# [14] = biological target: Neu5Ac(a2-3)Gal(b1-4)[Fuc(a1-3)]GlcNAc6S
# How it was run: as §1
# [15] = biological target: Neu5Ac(a2-3)Gal6S(b1-4)GlcNAc
# How it was run: as §1
# [16] = biological target: Neu5Ac(a2-3)Gal6S(b1-4)[Fuc(a1-3)]GlcNAc
# How it was run: as §1
# [17] = biological target: Neu5Ac(a2-3)GalNAc
# How it was run: as §1
# [18] = biological target: Neu5Ac(a2-3)GalNAc(b1-4)GlcNAc
# How it was run: as §1
# [19] = biological target: Neu5Ac(a2-3)[GalNAc(b1-4)]Gal(b1-4)Glc
# How it was run: as §1
# [20] = biological target: Neu5Ac(a2-3)[GalNAc(b1-4)]Gal(b1-4)GlcNAc
# How it was run: as §1
# [21] = biological target: Neu5Ac(a2-3)[GalNAc(b1-4)]Gal(b1-4)GlcNAc(b1-3)GalNAc
# How it was run: as §1
# [22] = biological target: Neu5Ac(a2-3)[Neu5Ac(a2-6)]GalNAc
# How it was run: as §1
# [23] = biological target: Neu5Ac(a2-6)Gal
# How it was run: as §1
# [24] = biological target: Neu5Ac(a2-6)Gal(b1-3)GlcNAc(b1-3)[Gal(b1-4)GlcNAc(b1-6)]Gal(b1-4)Glc
# How it was run: as §1
# [25] = biological target: Neu5Ac(a2-6)Gal(b1-4)Glc
# How it was run: as §1
# [26] = biological target: Neu5Ac(a2-6)Gal(b1-4)GlcNAc
# How it was run: as §1
# [27] = biological target: Neu5Ac(a2-6)Gal(b1-4)GlcNAc(b1-2)Man
# How it was run: as §1
# [28] = biological target: Neu5Ac(a2-6)Gal(b1-4)GlcNAc(b1-2)Man(a1-3)Man(b1-4)GlcNAc(b1-4)GlcNAc
# How it was run: as §1
# [29] = biological target: Neu5Ac(a2-6)Gal(b1-4)GlcNAc(b1-2)Man(a1-3)[Gal(b1-4)GlcNAc(b1-2)Man(a1-6)]Man(b1-4)GlcNAc(b1-4)GlcNAc
# How it was run: as §1
# [30] = biological target: Neu5Ac(a2-6)Gal(b1-4)GlcNAc(b1-2)Man(a1-3)[GlcNAc(b1-2)Man(a1-6)]Man(b1-4)GlcNAc(b1-4)GlcNAc
# How it was run: as §1
# [31] = biological target: Neu5Ac(a2-6)Gal(b1-4)GlcNAc(b1-2)Man(a1-3)[GlcNAc(b1-4)][Neu5Ac(a2-6)Gal(b1-4)GlcNAc(b1-2)Man(a1-6)]Man(b1-4)GlcNAc(b1-4)GlcNAc
# How it was run: as §1
binder,measurement,setting,value
B1,glycan array binding signal (z-score),[1],1.23
same,glycan array binding signal (z-score),[2],-0.016
same,glycan array binding signal (z-score),[3],-0.483
same,glycan array binding signal (z-score),[4],0.359
same,glycan array binding signal (z-score),[5],-0.891
same,glycan array binding signal (z-score),[6],-0.115
same,glycan array binding signal (z-score),[7],-0.202
same,glycan array binding signal (z-score),[8],-0.138
same,glycan array binding signal (z-score),[9],-0.55
same,glycan array binding signal (z-score),[10],-0.094
same,glycan array binding signal (z-score),[11],0.882
same,glycan array binding signal (z-score),[12],-0.265
same,glycan array binding signal (z-score),[13],-0.98
same,glycan array binding signal (z-score),[14],0.416
same,glycan array binding signal (z-score),[15],-0.481
same,glycan array binding signal (z-score),[16],-0.271
same,glycan array binding signal (z-score),[17],1.05
same,glycan array binding signal (z-score),[18],0.002
same,glycan array binding signal (z-score),[19],0.101
same,glycan array binding signal (z-score),[20],1.54
same,glycan array binding signal (z-score),[21],-1.24
same,glycan array binding signal (z-score),[22],-1.71
same,glycan array binding signal (z-score),[23],-1.08
same,glycan array binding signal (z-score),[24],0.389
same,glycan array binding signal (z-score),[25],-0.426
same,glycan array binding signal (z-score),[26],0.987
same,glycan array binding signal (z-score),[27],0.086
same,glycan array binding signal (z-score),[28],-0.517
same,glycan array binding signal (z-score),[29],0.708
same,glycan array binding signal (z-score),[30],-0.299
same,glycan array binding signal (z-score),[31],1.42

# Rewritten bar-delimited: entries from further up
binder | measurement | setting | value
B1 | glycan array binding signal (z-score) | [25] | -0.426
same | glycan array binding signal (z-score) | [26] | 0.987
